This is an account of results in PMC5496907.

No constants are given. Whether binding was seen depends on the method and setting. In cells and extracts the contact can be indirect. Some entries that bind do so weakly or less than the wild type. Tags and fused reporters may be left off the sequences shown.

This assay deals with HA-tagged full-length Cbl (UniProt P22681). In words: co-IP; 293T cells co-transfected; whole cell lysates (1% Triton X-100 or 1% NP-40 lysis buffer) IPed with anti-HA affinity resin (HA-Cbl or HA-Cbl TKB domain as bait), Western blot. Background: Immunoblotting shows a protein as a band on a membrane.

B1: un-tagged GMRβ (GM-CSF receptor β subunit) (receptor, UniProt P32927 17-897)
chain: WERSLAGAEETIPLQTLRCYNDYTSHITCRWADTQDAQRLVNVTLIRRVNEDLLEPVSCDLSDDMPWSACPHPRCVPRRCVIPCQSFVVTDVDYFSFQPDRPLGTRLTVTLTQHVQPPEPRDLQISTDQDHFLLTWSVALGSPQSHWLSPGDLEFEVVYKRLQDSWEDAAILLSNTSQATLGPEHLMPSSTYVARVRTRLAPGSRLSGRPSKWSPEVCWDSQPGDEAQPQNLECFFDGAAVLSCSWEVRKEVASSVSFGLFYKPSPDAGEEECSPVLREGLGSLHTRHHCQIPVPDPATHGQYIVSVQPRRAEKHIKSSVNIQMAPPSLNVTKDGDSYSLRWETMKMRYEHIDHTFEIQYRKDTATWKDSKTETLQNAHSMALPALEPSTRYWARVRVRTSRTGYNGIWSEWSEARSWDTESVLPMWVLALIVIFLTIAVLLALRFCGIYGYRLRRKWEEKIPNPSKSHLFQNGSAELWPPGSMSAFTSGSPPHQGPWGSRFPELEGVFPVGFGDSEVSPLTIEDPKHVCDPPSGPDTTPAASDLPTEQPPSPQPGPPAASHTPEKQASSFDFNGPYLGPPHSRSLPDILGQPEPPQEGGSQKSPPPGSLEYLCLPAGGQVQLVPLAQAMGPGQAVEVERRPSQGAAGSPSLESGGGPAPPALGPRVGGQDQKDSPVAIPMSSGDTEDPGVASGYVSSADLVFTPNSGASSVSLVPSLGLPSDQTPSLCPGLASGPPGAPGPVKSGFEGYVELPPIEGRSPRSPRNNPVPPEAKSPVLNPGERPADVSPTSPQPEGLLVLQQVGDYCFLPGLGPGPLSLRSKPSSPGPGPEIKNLDQAFQVKKPPGQAVPQVPVIQLFKALKQQDYLSLPPWEVNKPGEVC
For B1, the binding entry was “binds weakly”.
